Test results published in PubChem BioAssay AID588590 (National Center for Advancing Translational Sciences (NCATS), 2011).
Values joined by “and” are separate entries in the source; they are usually repeats but may differ in a detail not shown here. Equal entries are not always repeated. Screen size: about 390,000 compounds; about 4,000 (1%) were called active. Inconclusive means that the source gave no clear call. Such entries were picked first, then a sample of the others. The call rests on the fitted dose curve; in most records, active means well fitted inhibition curve with a large enough effect; inconclusive means small, poorly fitted or top-dose-only effect, or another doubt; inactive means no such curve, though single readings can be large or run the other way. A potency beside an inconclusive call is a rough fit, not a confirmed value.

Sequences of proteins named here, by UniProt entry; tags and fusion partners are left off. A change or cut given only in a name is not applied to a line headed by its entry.
UniProt Q9UNA4: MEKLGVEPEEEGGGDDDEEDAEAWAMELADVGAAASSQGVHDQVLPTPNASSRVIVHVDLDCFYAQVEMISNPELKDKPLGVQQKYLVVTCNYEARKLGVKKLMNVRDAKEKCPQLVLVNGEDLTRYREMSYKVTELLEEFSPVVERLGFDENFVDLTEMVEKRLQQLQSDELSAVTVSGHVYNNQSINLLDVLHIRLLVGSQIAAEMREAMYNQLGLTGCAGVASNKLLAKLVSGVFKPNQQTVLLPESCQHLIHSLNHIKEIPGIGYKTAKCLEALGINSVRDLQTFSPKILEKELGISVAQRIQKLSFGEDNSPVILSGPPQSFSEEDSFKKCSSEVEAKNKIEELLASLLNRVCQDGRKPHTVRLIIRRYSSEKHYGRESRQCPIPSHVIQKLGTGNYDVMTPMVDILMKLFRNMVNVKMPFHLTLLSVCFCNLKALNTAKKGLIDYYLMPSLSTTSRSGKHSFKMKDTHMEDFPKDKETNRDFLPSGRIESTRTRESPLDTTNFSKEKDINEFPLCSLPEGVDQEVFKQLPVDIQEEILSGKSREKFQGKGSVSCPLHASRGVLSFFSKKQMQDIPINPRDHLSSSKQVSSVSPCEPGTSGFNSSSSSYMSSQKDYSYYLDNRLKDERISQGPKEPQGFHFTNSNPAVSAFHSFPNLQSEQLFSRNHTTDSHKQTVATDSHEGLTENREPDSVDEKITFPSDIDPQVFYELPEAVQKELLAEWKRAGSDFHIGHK

Target: DNA polymerase iota (Homo sapiens) (UniProt Q9UNA4)
Assay: qHTS for Inhibitors of Polymerase Iota
Conditions: Pol iota fluorescent replication assay, 10 min; series mostly up to 115 µM
Outline: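 Fluorescent replication assay read twice, at 0 min and 10 min after adding 50 nM (final) substrate. Enzyme (10 nM) and compounds were first incubated 15 min at room temperature; enzyme-free buffer wells were negative controls.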
Potency means the concentration at half of the fitted maximal effect.

Q: `COc1cc(OC)c(NS(=O)(=O)c2cc(-c3cnc(C4CC4)o3)ccc2C)cc1Cl` was tested. Which Potency did it give?
A: Its Potency is inconclusive: 126 µM [inhibitor, single point].

Q: `CCC(=O)c1c(O)n(C2CCCCCC2)c(=O)[nH]c1=O` was tested. Which Potency did it give?
A: The Potency was inconclusive: 15.8 µM [inhibitor, partial curve, poor fit].

Q: For `O=C1NC(=O)N(c2ccc3c(c2)OCO3)C(=O)/C1=C/c1cccs1`, which Potency is on record?
A: The Potency was inconclusive: 28.2 µM [inhibitor, partial curve].

Q: How did the Potency turn out when `CCCCn1c(O)c(C=NC2CC3CCC2(C)C3(C)C)c(=O)[nH]c1=O` (configuration not stated) was run?
A: Its Potency is inconclusive: 3.55 µM [inhibitor, partial curve, poor fit].

Q: `CCOC(=O)c1c(-n2c(C)cc(/C=C3\C(=O)NC(=O)N(C)C3=O)c2C)sc2c1CCCC2` was tested. Which Potency did it give?
A: The Potency was active: 14.1 µM.

Q: `CN(C)c1ccc(CN2CC=C(c3ccc(F)cc3)CC2)cc1` was tested. Which Potency did it give?
A: Its Potency is inconclusive: 22.4 µM [inhibitor, single point].

Q: `C=C1C(=O)O[C@@H]2C[C@@H](C)[C@H]3C=CC(=O)[C@]3(O)C[C@@H]12` was tested. Which Potency did it give?
A: Its Potency is inconclusive: 28.2 µM [inhibitor, partial curve, poor fit].

Q: With `COc1ccc(NC(=O)CSc2oc(-c3cccs3)nc2S(=O)(=O)c2ccccc2)c(OC)c1` as the molecule, how does the Potency read?
A: The Potency was inconclusive: 35.5 µM [inhibitor, single point].

Q: Which Potency does the source give for `O=C(Nc1ccc(Oc2ccc(Cl)cc2)c(Cl)c1)c1cc(I)cc(I)c1O` here?
A: The Potency was inconclusive: 22.4 µM [inhibitor, single point].

Q: Which Potency does the source give for `c1ccc2c(c1)[I+]c1ccccc1-2` here?
A: Its Potency is inconclusive: 50.1 µM [inhibitor, partial curve, poor fit] and inconclusive: 14.1 µM [inhibitor, partial curve, poor fit].

Q: How did the Potency turn out when `CC1(C)c2[nH]c3ccccc3c2C[C@H]2C(=O)N(Cc3ccccc3F)C(=O)N21` was run?
A: Its Potency is inconclusive: 3.98 µM [inhibitor, full curve, poor fit].

Q: How did the Potency turn out when `O=[N+]([O-])c1cc(C(F)(F)F)c(Cl)c([N+](=O)[O-])c1Nc1ncc(C(F)(F)F)cc1Cl` was run?
A: The Potency was inconclusive: 11.2 µM [inhibitor, full curve, poor fit].

Q: `c1cncc(CNC2CCCCC2)c1` was tested. Which Potency did it give?
A: The Potency was inconclusive: 89.1 µM [inhibitor, single point].

Q: Which Potency does the source give for `COc1ccc(-c2nc(NC(=O)Cn3c(=O)oc4ccccc43)sc2C)cc1` here?
A: Its Potency is inconclusive: 6.31 µM [inhibitor, partial curve, poor fit].

Q: Which Potency does the source give for `O=C1C[C@@H](c2ccc(O)cc2)Oc2cc(O)cc(O)c21` here?
A: The Potency was “inactive”.

Q: Which Potency does the source give for `O=C(c1ccc2c(c1)N(Cc1ccc(F)cc1)C(=O)c1ccccc1S2)N1CCC2(CC1)OCCO2` here?
A: Its Potency is inconclusive: 89.1 µM [inhibitor, single point].

Q: `O=[N+]([O-])c1cc([As](=O)(O)O)ccc1O` was tested. Which Potency did it give?
A: The Potency was inconclusive: 14.1 µM [inhibitor, partial curve, poor fit].

Q: `Cc1cc(/C=C2\C(=O)NC(=O)N(c3ccccc3)C2=O)c(C)n1-c1ccc(C(=O)O)c(Cl)c1` was tested. Which Potency did it give?
A: The Potency was inconclusive: 63.1 µM [inhibitor, single point].

Q: `COc1ccc(CC2C(=O)NC(=O)N(c3ccccc3)C2=O)c(OC)c1` (configuration not stated) was tested. Which Potency did it give?
A: Its Potency is inconclusive: 28.2 µM [inhibitor, partial curve].

Q: With `COc1cccc2c1C(=O)c1c(O)c3c(c(O)c1C2=O)C[C@@](O)(C(=O)CO)C[C@@H]3O[C@H]1C[C@H](N)[C@H](OC2CCCCO2)[C@H](C)O1` (some centres not stated) as the molecule, how does the Potency read?
A: The Potency was inconclusive: 56.2 µM [inhibitor, partial curve, poor fit].

Q: How did the Potency turn out when `Cc1ccc(/C=C2\C(=O)NC(=S)N(c3ccc(F)cc3)C2=O)s1` was run?
A: Its Potency is inconclusive: 35.5 µM [inhibitor, partial curve].

Q: For `C/C(=N\NC(=O)c1ccncc1)c1c(O)n(-c2ccccc2)c(=O)[nH]c1=O`, which Potency is on record?
A: The Potency was inconclusive: 15.8 µM [inhibitor, full curve, poor fit].

Q: Which Potency does the source give for `COc1cc(/C=N/NC(=O)CN2CCCCC2)ccc1OCc1ccccc1` here?
A: Its Potency is inconclusive: 112 µM [inhibitor, partial curve, poor fit].

Q: `O=C1NC(=O)N(c2ccc(Cl)cc2)C(=O)/C1=C/c1coc2ccc(O)cc2c1=O` was tested. Which Potency did it give?
A: The Potency was inconclusive: 22.4 µM [inhibitor, full curve, poor fit].

Q: For `COC(=O)[C@@H]1C[C@H]1[C@@H](NP(=O)(c1ccccc1)c1ccccc1)c1ccccc1`, which Potency is on record?
A: Its Potency is inconclusive: 89.1 µM [inhibitor, single point].

Q: Which Potency does the source give for `O=C1NC(=O)C(Cc2ccccc2)C(=O)N1` here?
A: Its Potency is inconclusive: 14.1 µM [inhibitor, full curve, poor fit].

Q: Which Potency does the source give for `CCNC(=S)NCCC1=c2ccccc2=N/C1=C\c1c(O)n(C)c(=O)n(C)c1=O` here?
A: Its Potency is inconclusive: 25.1 µM [inhibitor, partial curve, poor fit].

Q: `O=C(CSc1nc(-c2cccs2)nc2cc(=O)[nH]n12)Nc1ccc(F)cc1` was tested. Which Potency did it give?
A: The Potency was inconclusive: 89.1 µM [inhibitor, single point].

Q: How did the Potency turn out when `Cc1cccc(NC(=O)COC(=O)c2cc(C)n(C3CC3)c2C)c1` was run?
A: Its Potency is inconclusive: 8.91 µM [inhibitor, single point].

Q: How did the Potency turn out when `Cn1cc(C(=O)OCC(=O)Nc2ccccc2Cl)c2ccccc21` was run?
A: The Potency was inconclusive: 89.1 µM [inhibitor, partial curve].

Q: `CN1CC[C@@]2(C)c3cc(O)ccc3N(C)C12` (some centres not stated) was tested. Which Potency did it give?
A: Its Potency is active: 28.2 µM.

Q: Which Potency does the source give for `COc1ccccc1NC(=O)COC(=O)c1cn(C)c2ccccc12` here?
A: Its Potency is “inactive”.

Q: How did the Potency turn out when `O=C(c1ccc2c(c1)OCO2)N1CCC2(CC1)OCCO2` was run?
A: Its Potency is inconclusive: 126 µM [inhibitor, single point].

Q: Which Potency does the source give for `CCn1cc(C(=O)O)c(=O)c2cc3c(cc21)OCO3` here?
A: Its Potency is inconclusive: 44.7 µM [inhibitor, partial curve, poor fit].

Q: Which Potency does the source give for `CC(=O)c1ccc(OC(=O)N2CCOCC2)cc1` here?
A: The Potency was “inactive”.

Q: `O=c1c2ccccc2nc(CSc2ncnc3nc[nH]c23)n1-c1ccccc1` was tested. Which Potency did it give?
A: The Potency was “inactive”.

Q: With `COc1ccc(Cn2c(O)c(/C=N/NC(=O)c3ccccc3O)c(=O)[nH]c2=O)cc1` as the molecule, how does the Potency read?
A: The Potency was “inactive”.

Q: `CC1Cc2ccccc2N1NC(=O)c1ccc(Cl)c(S(N)(=O)=O)c1` (configuration not stated) was tested. Which Potency did it give?
A: The Potency was inconclusive: 89.1 µM [inhibitor, single point].

Q: `O=C1NC(=O)N(c2ccc3c(c2)OCO3)C(=O)/C1=C/c1ccc(N2CCCC2)o1` was tested. Which Potency did it give?
A: The Potency was inconclusive: 89.1 µM [inhibitor, single point].

Q: `CSc1ncc(/C=C2/C(=O)NC(=O)N(c3ccc(C(C)C)cc3)C2=O)cn1` was tested. Which Potency did it give?
A: The Potency was “inactive”.

Q: Which Potency does the source give for `COC(=O)C1=C(c2ccc(F)cc2F)C[C@@H]2CC[C@H]1N2C(=O)NCc1ccc2c(c1)OCO2` here?
A: The Potency was inconclusive: 89.1 µM [inhibitor, single point].

Q: `O=C1NC(=O)N(c2ccccc2F)C(=O)/C1=C/c1ccc(Sc2nc3ccccc3[nH]2)o1` was tested. Which Potency did it give?
A: The Potency was inconclusive: 14.1 µM [inhibitor, full curve, poor fit].

Q: Which Potency does the source give for `COc1ccc(N=Nc2c(O)[nH]c(=S)[nH]c2=O)cc1` here?
A: The Potency was “inactive”.

Q: For `O=C(N/N=C/c1c(O)n(CCc2ccc(F)cc2)c(=O)[nH]c1=O)c1ccccc1`, which Potency is on record?
A: Its Potency is “inactive”.

Q: `Cc1ccc(C(=O)Nc2ccccc2)cc1S(=O)(=O)N1CCCC1` was tested. Which Potency did it give?
A: Its Potency is inconclusive: 100 µM [inhibitor, single point].

Q: `O=C(Cc1ccccc1)N1CCN(CC2CC=CCC2)CC1` (configuration not stated) was tested. Which Potency did it give?
A: Its Potency is inconclusive: 39.8 µM [inhibitor, single point].

Q: Which Potency does the source give for `CC(=O)N1C[C@H](O)C[C@H]1C(=O)O` here?
A: Its Potency is inconclusive: 3.55 µM [inhibitor, partial curve, poor fit].

Q: Which Potency does the source give for `CCC(C)N1C(=O)/C(=C/c2ccc3c(c2)CCN3CCCCl)C(=O)NC1=S` (configuration not stated) here?
A: The Potency was inconclusive: 20 µM [inhibitor, full curve, poor fit].

Q: For `CC[C@@H](CO)NC(=O)[C@H]1C=C2c3cccc4c3c(cn4C)C[C@H]2N(C)C1`, which Potency is on record?
A: The Potency was inconclusive: 31.6 µM [inhibitor, partial curve].

Q: `CCCN1CCC[C@@H]2Cc3[nH]ncc3C[C@H]21` was tested. Which Potency did it give?
A: Its Potency is inconclusive: 3.55 µM [inhibitor, partial curve, poor fit].

Q: Which Potency does the source give for `CCN(CC)c1ccc(/C=C/[N+](=O)[O-])cc1` here?
A: Its Potency is inconclusive: 31.6 µM [inhibitor, single point].

Q: How did the Potency turn out when `O=C(O)CCn1cc(C=C2C(=O)NC(=S)NC2=O)c(-c2cc3ccccc3oc2=O)n1` was run?
A: The Potency was active: 39.8 µM.

Q: For `O=C(O)CCn1cc(C=C2C(=O)NC(=S)NC2=O)c(-c2ccccc2)n1`, which Potency is on record?
A: The Potency was “inactive”.

Q: `Cc1cccc(N2C(=O)CC(=O)NC2=O)c1` was tested. Which Potency did it give?
A: Its Potency is “inactive”.

Q: With `C=CCN1C(=O)NC(=O)/C(=C/c2cccn2C)C1=O` as the molecule, how does the Potency read?
A: The Potency was inconclusive: 20 µM [inhibitor, full curve, poor fit].

Q: Which Potency does the source give for `CC(C)NS(=O)(=O)c1ccc(OCC(=O)N2CCN(Cc3ccccc3)CC2)cc1` here?
A: Its Potency is inconclusive: 100 µM [inhibitor, partial curve].

Q: Which Potency does the source give for `CC(C)(C)c1ccc(C(=O)NCc2ccco2)cc1` here?
A: The Potency was “inactive”.

Q: `O=C(c1ccccc1)C(CN1CCCC1)c1ccccc1` (configuration not stated) was tested. Which Potency did it give?
A: The Potency was inconclusive: 112 µM [inhibitor, partial curve, poor fit].

Q: With `NC(=O)c1cn(C2OC(CO)C(O)C2O)c2ncnc(N)c12` (configuration not stated) as the molecule, how does the Potency read?
A: The Potency was “inactive”.

Q: `Cn1c(O)c(/C=C2\C=c3ccccc3=NC2=O)c(=O)n(C)c1=O` was tested. Which Potency did it give?
A: The Potency was inconclusive: 1.58 µM [inhibitor, full curve, poor fit].

Q: For `O=C1NC(=O)C(=Cc2cccc(OCCOc3ccccc3)c2)C(=O)N1`, which Potency is on record?
A: Its Potency is inconclusive: 20 µM [inhibitor, full curve, poor fit].

Q: For `C[C@H](CO)N1C[C@H](C)[C@@H](CN(C)C(=O)NC2CCCCC2)Oc2c(NC(=O)Nc3ccc4c(c3)OCO4)cccc2C1=O`, which Potency is on record?
A: The Potency was inconclusive: 39.8 µM [inhibitor, partial curve, poor fit].
